# Results taken from the supplement of paper PMC10849652.
# Some of the results follow.
# What was measured:
# Experiment in all cases: log2 fold change, soluble protein after heating vs DMSO (PISA); higher = thermal stabilisation; K562 lysate, 10 uM; active = over 0.2 and 3.5 SD of the protein, either way, in both replicates (recomputed)
# alvocidib = compound: CN1CC[C@H](c2c(O)cc(O)c3c(=O)cc(-c4ccccc4Cl)oc23)[C@H](O)C1 [alvocidib]
# Procedure, shortened: (§1)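 Thermal stability, expressed as log-two fold change relative to solvent controls, is given from duplicates. Crude K562 extract in PBS pH 7.4 with 1 mM MgCl2, at 1 mg/mL protein, was treated with 10 μM compound for 30 min and heated in aliquots for 3 min across 48°C-58°C. After pooling, adjustment to 0.5% NP-40 at 4°C and centrifugation at 21,000xg for 90 min, supernatant protein was measured by TMTpro 16plex LC-MS/MS with channel sums equalised.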
# Tubastatin A = compound: CN1CCc2c(c3ccccc3n2Cc2ccc(C(=O)NO)cc2)C1 [Tubastatin A]
# Procedure, shortened: as §1
# [1] = compound: CNC(=O)C1=CC=CC=C1NC2=NC(=NC=C2Cl)NC3=C(C=C(C=C3)N4CCOCC4)OC
# Procedure, shortened: as §1
# defactinib = compound: CNC(=O)c1ccc(Nc2ncc(C(F)(F)F)c(NCc3nccnc3N(C)S(C)(=O)=O)n2)cc1 [defactinib]
# Procedure, shortened: as §1
# [2] = compound: CNc1nc(-c2ccc3c(N)n[nH]c3c2)cc(N2C[C@@H](C(=O)NC3CCCCC3)CC[C@H]2C)n1
# Procedure, shortened: as §1
# alisertib = compound: COc1cc(Nc2ncc3c(n2)-c2ccc(Cl)cc2C(c2c(F)cccc2OC)=NC3)ccc1C(=O)O [alisertib]
# Procedure, shortened: as §1
# gefitinib = compound: COc1cc2ncnc(Nc3ccc(F)c(Cl)c3)c2cc1OCCCN1CCOCC1 [gefitinib]
# Procedure, shortened: as §1
# pictilisib = compound: CS(=O)(=O)N1CCN(Cc2cc3nc(-c4cccc5[nH]ncc45)nc(N4CCOCC4)c3s2)CC1 [pictilisib]
# Procedure, shortened: as §1
# crizotinib = compound: C[C@@H](Oc1cc(-c2cnn(C3CCNCC3)c2)cnc1N)c1c(Cl)ccc(F)c1Cl [crizotinib]
# Procedure, shortened: as §1
# [3] = compound: C[C@H](C1=CC=C(C=C1)C(=O)NC2=C3C=CNC3=NC=C2)N
# Procedure, shortened: as §1
# duvelisib = compound: C[C@H](Nc1ncnc2nc[nH]c12)c1cc2cccc(Cl)c2c(=O)n1-c1ccccc1 [duvelisib]
# Procedure, shortened: as §1
# gandotinib = compound: Cc1cc(Nc2cc(CN3CCOCC3)c3nc(C)c(Cc4ccc(Cl)cc4F)n3n2)n[nH]1 [gandotinib]
# Procedure, shortened: as §1
# doramapimod = compound: Cc1ccc(-n2nc(C(C)(C)C)cc2NC(=O)Nc2ccc(OCCN3CCOCC3)c3ccccc23)cc1 [doramapimod]
# Procedure, shortened: as §1
# bafetinib = compound: Cc1ccc(NC(=O)c2ccc(CN3CC[C@H](N(C)C)C3)c(C(F)(F)F)c2)cc1Nc1nccc(-c2cncnc2)n1 [bafetinib]
# Procedure, shortened: as §1
# [4] = compound: Cc1cccc(CC(=O)N2CCc3c2ccc(-c2cn(C)c4ncnc(N)c24)c3F)n1
# Procedure, shortened: as §1
# encorafenib = compound: COC(=O)N[C@@H](C)CNc1nccc(-c2cn(C(C)C)nc2-c2cc(Cl)cc(NS(C)(=O)=O)c2F)n1 [encorafenib]
# Procedure, shortened: as §1
# [5] = compound: COC(=O)[C@H](CCSC)NC(=O)C1=C(C=C(C=C1)NC[C@H](CS)N)C2=CC=CC=C2
# Procedure, shortened: as §1
# [6] = compound: COc1cc2nc(-c3cc(F)ccc3O)nc(N[C@@H]3CNC[C@H]3C(C)(C)O)c2cc1OC
# Procedure, shortened: as §1
# lapatinib = compound: CS(=O)(=O)CCNCc1ccc(-c2ccc3ncnc(Nc4ccc(OCc5cccc(F)c5)c(Cl)c4)c3c2)o1 [lapatinib]
# Procedure, shortened: as §1
# tozasertib = compound: Cc1cc(Nc2cc(N3CCN(C)CC3)nc(Sc3ccc(NC(=O)C4CC4)cc3)n2)n[nH]1 [tozasertib]
# Procedure, shortened: as §1
Target,log2 fold change (alvocidib),log2 fold change (Tubastatin A),log2 fold change [1],log2 fold change (defactinib),log2 fold change [2],log2 fold change (alisertib),log2 fold change (gefitinib),log2 fold change (pictilisib),log2 fold change (crizotinib),log2 fold change [3],log2 fold change (duvelisib),log2 fold change (gandotinib),log2 fold change (doramapimod),log2 fold change (bafetinib),log2 fold change [4],log2 fold change (encorafenib),log2 fold change [5],log2 fold change [6],log2 fold change (lapatinib),log2 fold change (tozasertib)
PPP2R5C isoform 2 (UniProt Q13362),inactive: -0.004,inactive: 0.044,inactive: -0.028,inactive: -0.024,inactive: 0.001,inactive: 0.058,inactive: -0.062,inactive: 0.151,inactive: 0.234,inactive: -0.021,inactive: -0.064,inactive: 0.026,inactive: -0.043,inactive: 0.103,inactive: -0.005,,,,,
PPIL1 (UniProt Q9Y3C6),inactive: 0.021,inactive: -0.046,inactive: 0.007,inactive: 0.009,inactive: 0.002,inactive: -0.004,inactive: -0.04,inactive: 0.011,inactive: -0.017,inactive: -0.01,inactive: -0.027,inactive: -0.046,inactive: 0.029,inactive: 0.012,inactive: -0.022,inactive: -0.001,inactive: -0.073,inactive: -0.043,inactive: -0.018,inactive: 0.043
PPM1H (UniProt Q9ULR3),inactive: -0.046,inactive: 0.071,inactive: 0.006,inactive: -0.03,inactive: 0.078,,,inactive: 0.016,inactive: 0.021,inactive: -0.043,inactive: 0,inactive: 0.157,inactive: 0.093,inactive: -0.079,inactive: 0.038,inactive: -0.008,inactive: -0.028,inactive: 0.05,inactive: 0.013,inactive: 0.021
PPP1R11 (UniProt O60927),inactive: 0.048,inactive: 0.077,inactive: 0.011,,inactive: -0.001,inactive: -0.081,inactive: -0.09,inactive: -0.016,inactive: -0.069,inactive: 0.153,inactive: -0.054,inactive: -0.048,inactive: -0.022,inactive: 0.099,inactive: -0.071,inactive: 0.051,inactive: -0.027,inactive: -0.041,inactive: 0.01,inactive: 0.022
PPP2R5E (UniProt Q16537),inactive: 0.029,inactive: 0.024,inactive: 0.07,inactive: -0.028,inactive: 0.024,inactive: 0.015,inactive: -0.036,inactive: 0.062,inactive: -0.068,inactive: 0,inactive: 0.014,inactive: -0.047,inactive: -0.061,inactive: -0.08,inactive: 0.008,inactive: 0.007,inactive: 0.043,inactive: 0.01,inactive: -0.015,inactive: -0.026
PPP2CA (UniProt P67775),inactive: -0.062,inactive: -0.018,inactive: 0.026,inactive: -0.064,inactive: -0.019,inactive: -0.016,inactive: -0.009,inactive: -0.001,inactive: 0.159,inactive: 0.051,inactive: -0.024,inactive: -0.022,inactive: -0.049,inactive: 0.053,inactive: 0.03,inactive: 0.128,active: -0.374,inactive: -0.013,inactive: -0.028,inactive: -0.116
PRNP (UniProt P04156),inactive: -0.076,inactive: -0.024,inactive: 0.111,,inactive: 0.152,inactive: 0.06,inactive: -0.133,inactive: -0.089,inactive: -0.16,inactive: -0.075,inactive: -0.085,inactive: 0.116,inactive: 0.054,inactive: 0.108,inactive: -0.064,,,inactive: 0.017,inactive: -0.034,
PPP1R14C (UniProt Q8TAE6),inactive: -0.045,inactive: -0.033,,inactive: -0.002,inactive: -0.14,inactive: -0.044,inactive: 0.032,inactive: -0.025,,inactive: -0.022,inactive: 0.121,active: 0.358,,inactive: 0.041,inactive: 0.336,inactive: 0.064,inactive: 0.014,inactive: -0.04,inactive: -0.044,inactive: 0.08
PRKCSH (UniProt P14314),inactive: 0.009,inactive: 0.039,inactive: -0.001,inactive: -0.014,inactive: -0.035,inactive: -0.006,inactive: 0.024,inactive: -0.004,inactive: 0.062,inactive: 0.046,inactive: 0.022,inactive: -0.023,inactive: -0.042,inactive: 0.05,inactive: -0.088,inactive: -0.003,inactive: -0.036,inactive: 0.024,inactive: -0.004,inactive: 0.02
PROSER1 (UniProt Q86XN7),inactive: -0.177,inactive: -0.162,inactive: -0.287,inactive: 0.132,inactive: -0.182,inactive: 0.037,inactive: -0.004,inactive: -0.077,,inactive: 0.101,inactive: 0.118,inactive: -0.372,,inactive: 0.013,inactive: -0.026,,,inactive: -0.044,inactive: 0.111,
PPP2R5B (UniProt Q15173),inactive: 0.069,inactive: -0.012,inactive: -0.03,inactive: -0.091,inactive: -0.056,,,inactive: -0.064,inactive: 0.075,inactive: -0.017,inactive: 0.021,inactive: -0.168,inactive: 0.005,inactive: 0.054,inactive: -0.036,inactive: -0.017,active: 0.288,inactive: 0.046,inactive: -0.089,inactive: 0.04
PPP2R3C (UniProt Q969Q6),inactive: -0.018,inactive: -0.145,inactive: -0.046,inactive: 0.072,inactive: 0.081,inactive: 0.069,inactive: 0.105,inactive: -0.029,,inactive: -0.1,inactive: 0.028,inactive: -0.097,,inactive: 0.022,inactive: 0.023,inactive: 0.105,inactive: 0.013,inactive: -0.23,inactive: 0.048,inactive: 0.036
PRDM2 (UniProt Q13029),inactive: 0.006,inactive: 0.036,inactive: -0.04,inactive: -0.024,inactive: 0.19,,,inactive: 0.192,,inactive: -0.081,inactive: -0.065,inactive: 0.029,,inactive: -0.106,inactive: 0.117,,,inactive: 0.01,inactive: -0.058,
PPP2R2D (UniProt Q66LE6),inactive: -0.015,inactive: 0.096,inactive: 0.008,inactive: -0.06,inactive: -0.028,inactive: 0.031,inactive: 0.103,inactive: 0.029,inactive: 0.053,inactive: -0.149,inactive: 0.01,inactive: 0.084,inactive: -0.036,inactive: -0.032,inactive: 0.046,,,inactive: -0.009,inactive: -0.015,
PRPF6 (UniProt O94906),inactive: 0.006,inactive: -0.096,inactive: 0.01,inactive: 0.025,inactive: -0.011,inactive: 0.008,inactive: -0.016,inactive: 0.009,inactive: -0.06,inactive: -0.023,inactive: -0.023,inactive: -0.08,inactive: 0.064,inactive: -0.056,inactive: 0.031,inactive: 0.024,active: 0.22,inactive: 0.009,inactive: -0.008,inactive: 0.023

# Some of the entries above, reformatted.
Target	log2 fold change (alvocidib)	log2 fold change (Tubastatin A)	log2 fold change [1]	log2 fold change (defactinib)	log2 fold change [2]	log2 fold change (alisertib)	log2 fold change (gefitinib)	log2 fold change (pictilisib)	log2 fold change (crizotinib)	log2 fold change [3]	log2 fold change (duvelisib)	log2 fold change (gandotinib)	log2 fold change (doramapimod)	log2 fold change (bafetinib)	log2 fold change [4]	log2 fold change (encorafenib)	log2 fold change [5]	log2 fold change [6]	log2 fold change (lapatinib)	log2 fold change (tozasertib)
PPIL1 (UniProt Q9Y3C6)	inactive: 0.021	inactive: -0.046	inactive: 0.007	inactive: 0.009	inactive: 0.002	inactive: -0.004	inactive: -0.04	inactive: 0.011	inactive: -0.017	inactive: -0.01	inactive: -0.027	inactive: -0.046	inactive: 0.029	inactive: 0.012	inactive: -0.022	inactive: -0.001	inactive: -0.073	inactive: -0.043	inactive: -0.018	inactive: 0.043
PPM1H (UniProt Q9ULR3)	inactive: -0.046	inactive: 0.071	inactive: 0.006	inactive: -0.03	inactive: 0.078			inactive: 0.016	inactive: 0.021	inactive: -0.043	inactive: 0	inactive: 0.157	inactive: 0.093	inactive: -0.079	inactive: 0.038	inactive: -0.008	inactive: -0.028	inactive: 0.05	inactive: 0.013	inactive: 0.021
